Experimental findings from the supplement of paper PMC10849652 are described below.

Sequences of proteins named here, by UniProt entry; tags and fusion partners are left off. A change or cut given only in a name is not applied to a line headed by its entry.
UniProt Q9H4G0, whole entry, looked up: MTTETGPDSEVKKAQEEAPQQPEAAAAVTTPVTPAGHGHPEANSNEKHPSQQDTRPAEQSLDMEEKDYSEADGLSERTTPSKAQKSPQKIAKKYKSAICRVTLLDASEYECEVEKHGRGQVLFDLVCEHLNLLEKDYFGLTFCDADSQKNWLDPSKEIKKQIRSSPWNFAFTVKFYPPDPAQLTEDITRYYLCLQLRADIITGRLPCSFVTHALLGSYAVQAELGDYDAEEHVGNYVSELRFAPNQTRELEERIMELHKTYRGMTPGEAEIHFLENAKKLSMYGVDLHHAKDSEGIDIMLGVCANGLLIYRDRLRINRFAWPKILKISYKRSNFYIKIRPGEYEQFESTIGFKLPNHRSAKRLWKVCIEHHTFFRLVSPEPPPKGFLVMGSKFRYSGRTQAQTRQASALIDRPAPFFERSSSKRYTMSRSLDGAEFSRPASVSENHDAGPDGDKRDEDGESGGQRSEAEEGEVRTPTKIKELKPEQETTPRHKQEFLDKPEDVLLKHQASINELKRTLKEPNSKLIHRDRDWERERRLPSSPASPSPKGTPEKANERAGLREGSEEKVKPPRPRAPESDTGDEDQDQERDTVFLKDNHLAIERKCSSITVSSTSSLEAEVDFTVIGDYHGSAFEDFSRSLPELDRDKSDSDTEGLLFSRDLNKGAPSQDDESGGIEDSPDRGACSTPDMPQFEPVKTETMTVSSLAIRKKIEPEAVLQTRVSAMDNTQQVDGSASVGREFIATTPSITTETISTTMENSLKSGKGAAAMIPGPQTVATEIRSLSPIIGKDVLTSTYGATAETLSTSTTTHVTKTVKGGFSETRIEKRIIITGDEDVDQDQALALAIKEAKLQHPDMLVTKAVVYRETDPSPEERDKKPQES
UniProt Q9BQ52: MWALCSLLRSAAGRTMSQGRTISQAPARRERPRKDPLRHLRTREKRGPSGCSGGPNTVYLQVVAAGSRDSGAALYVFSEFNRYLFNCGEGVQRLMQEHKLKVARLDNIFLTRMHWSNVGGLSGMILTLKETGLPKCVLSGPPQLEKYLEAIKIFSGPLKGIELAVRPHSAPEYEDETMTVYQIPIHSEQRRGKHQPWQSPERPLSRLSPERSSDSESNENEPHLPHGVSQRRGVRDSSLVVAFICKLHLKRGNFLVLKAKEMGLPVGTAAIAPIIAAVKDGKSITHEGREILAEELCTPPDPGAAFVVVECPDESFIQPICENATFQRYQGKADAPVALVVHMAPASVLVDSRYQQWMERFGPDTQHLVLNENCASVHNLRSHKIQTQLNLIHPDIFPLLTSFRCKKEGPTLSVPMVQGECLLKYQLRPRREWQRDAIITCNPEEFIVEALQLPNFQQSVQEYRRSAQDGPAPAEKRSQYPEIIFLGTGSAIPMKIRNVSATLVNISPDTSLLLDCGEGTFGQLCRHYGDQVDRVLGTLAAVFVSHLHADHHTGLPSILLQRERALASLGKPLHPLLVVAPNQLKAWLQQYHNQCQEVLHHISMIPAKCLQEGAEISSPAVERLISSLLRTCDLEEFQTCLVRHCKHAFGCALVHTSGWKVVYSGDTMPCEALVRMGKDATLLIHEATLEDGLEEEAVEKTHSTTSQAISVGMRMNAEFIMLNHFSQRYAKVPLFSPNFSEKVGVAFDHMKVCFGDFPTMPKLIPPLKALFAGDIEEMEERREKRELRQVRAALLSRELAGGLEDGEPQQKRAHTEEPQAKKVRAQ
UniProt P23588, whole entry, looked up: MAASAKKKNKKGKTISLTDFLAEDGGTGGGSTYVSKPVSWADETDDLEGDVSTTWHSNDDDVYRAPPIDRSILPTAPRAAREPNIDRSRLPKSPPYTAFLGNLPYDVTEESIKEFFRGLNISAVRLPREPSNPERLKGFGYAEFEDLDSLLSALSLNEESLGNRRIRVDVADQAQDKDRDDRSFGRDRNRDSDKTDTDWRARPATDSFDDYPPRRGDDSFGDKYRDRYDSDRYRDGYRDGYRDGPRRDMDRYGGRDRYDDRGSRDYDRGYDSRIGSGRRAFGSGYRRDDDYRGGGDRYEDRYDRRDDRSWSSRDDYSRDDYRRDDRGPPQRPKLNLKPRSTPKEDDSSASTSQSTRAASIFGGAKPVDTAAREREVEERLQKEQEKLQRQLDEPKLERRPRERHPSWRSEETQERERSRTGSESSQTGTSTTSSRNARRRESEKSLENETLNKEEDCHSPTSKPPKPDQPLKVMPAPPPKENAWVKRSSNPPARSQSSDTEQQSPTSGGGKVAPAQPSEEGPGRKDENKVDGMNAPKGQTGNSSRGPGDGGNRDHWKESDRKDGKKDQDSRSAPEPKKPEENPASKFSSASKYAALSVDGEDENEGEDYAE
UniProt Q0PNE2: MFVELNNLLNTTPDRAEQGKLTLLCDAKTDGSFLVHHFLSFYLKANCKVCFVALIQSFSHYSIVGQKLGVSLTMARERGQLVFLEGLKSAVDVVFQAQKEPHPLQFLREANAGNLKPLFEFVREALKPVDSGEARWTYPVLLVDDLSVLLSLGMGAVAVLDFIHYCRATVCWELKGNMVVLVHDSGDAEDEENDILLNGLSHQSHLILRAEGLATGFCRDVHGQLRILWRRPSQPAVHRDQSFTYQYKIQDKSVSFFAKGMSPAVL
UniProt Q15369, whole entry, looked up: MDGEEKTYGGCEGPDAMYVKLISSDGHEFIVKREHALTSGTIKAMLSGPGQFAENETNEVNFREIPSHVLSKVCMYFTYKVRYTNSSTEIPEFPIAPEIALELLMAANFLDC
UniProt Q32P44: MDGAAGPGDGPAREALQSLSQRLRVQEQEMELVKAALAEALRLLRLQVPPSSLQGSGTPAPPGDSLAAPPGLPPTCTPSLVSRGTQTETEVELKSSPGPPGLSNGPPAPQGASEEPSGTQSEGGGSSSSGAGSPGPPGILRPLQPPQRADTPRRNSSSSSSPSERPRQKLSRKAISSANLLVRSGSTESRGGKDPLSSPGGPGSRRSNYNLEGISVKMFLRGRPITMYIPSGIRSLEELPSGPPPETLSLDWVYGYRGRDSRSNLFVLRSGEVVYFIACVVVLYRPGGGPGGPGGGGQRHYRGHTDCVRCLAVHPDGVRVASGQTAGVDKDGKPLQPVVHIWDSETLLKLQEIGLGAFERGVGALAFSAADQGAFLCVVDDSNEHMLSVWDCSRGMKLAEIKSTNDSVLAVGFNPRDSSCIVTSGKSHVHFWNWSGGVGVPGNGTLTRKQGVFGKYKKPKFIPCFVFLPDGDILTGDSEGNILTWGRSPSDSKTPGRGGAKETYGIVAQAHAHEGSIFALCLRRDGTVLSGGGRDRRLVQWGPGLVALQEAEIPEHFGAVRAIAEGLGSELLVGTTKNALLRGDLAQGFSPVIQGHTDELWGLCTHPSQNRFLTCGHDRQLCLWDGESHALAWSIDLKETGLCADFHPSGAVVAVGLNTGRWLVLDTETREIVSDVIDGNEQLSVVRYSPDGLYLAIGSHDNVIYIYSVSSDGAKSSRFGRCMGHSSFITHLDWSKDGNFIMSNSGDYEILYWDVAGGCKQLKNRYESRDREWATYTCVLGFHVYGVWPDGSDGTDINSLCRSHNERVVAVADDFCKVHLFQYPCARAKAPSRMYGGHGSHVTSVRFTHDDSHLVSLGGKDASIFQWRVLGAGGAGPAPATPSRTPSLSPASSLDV
UniProt Q9P2K8: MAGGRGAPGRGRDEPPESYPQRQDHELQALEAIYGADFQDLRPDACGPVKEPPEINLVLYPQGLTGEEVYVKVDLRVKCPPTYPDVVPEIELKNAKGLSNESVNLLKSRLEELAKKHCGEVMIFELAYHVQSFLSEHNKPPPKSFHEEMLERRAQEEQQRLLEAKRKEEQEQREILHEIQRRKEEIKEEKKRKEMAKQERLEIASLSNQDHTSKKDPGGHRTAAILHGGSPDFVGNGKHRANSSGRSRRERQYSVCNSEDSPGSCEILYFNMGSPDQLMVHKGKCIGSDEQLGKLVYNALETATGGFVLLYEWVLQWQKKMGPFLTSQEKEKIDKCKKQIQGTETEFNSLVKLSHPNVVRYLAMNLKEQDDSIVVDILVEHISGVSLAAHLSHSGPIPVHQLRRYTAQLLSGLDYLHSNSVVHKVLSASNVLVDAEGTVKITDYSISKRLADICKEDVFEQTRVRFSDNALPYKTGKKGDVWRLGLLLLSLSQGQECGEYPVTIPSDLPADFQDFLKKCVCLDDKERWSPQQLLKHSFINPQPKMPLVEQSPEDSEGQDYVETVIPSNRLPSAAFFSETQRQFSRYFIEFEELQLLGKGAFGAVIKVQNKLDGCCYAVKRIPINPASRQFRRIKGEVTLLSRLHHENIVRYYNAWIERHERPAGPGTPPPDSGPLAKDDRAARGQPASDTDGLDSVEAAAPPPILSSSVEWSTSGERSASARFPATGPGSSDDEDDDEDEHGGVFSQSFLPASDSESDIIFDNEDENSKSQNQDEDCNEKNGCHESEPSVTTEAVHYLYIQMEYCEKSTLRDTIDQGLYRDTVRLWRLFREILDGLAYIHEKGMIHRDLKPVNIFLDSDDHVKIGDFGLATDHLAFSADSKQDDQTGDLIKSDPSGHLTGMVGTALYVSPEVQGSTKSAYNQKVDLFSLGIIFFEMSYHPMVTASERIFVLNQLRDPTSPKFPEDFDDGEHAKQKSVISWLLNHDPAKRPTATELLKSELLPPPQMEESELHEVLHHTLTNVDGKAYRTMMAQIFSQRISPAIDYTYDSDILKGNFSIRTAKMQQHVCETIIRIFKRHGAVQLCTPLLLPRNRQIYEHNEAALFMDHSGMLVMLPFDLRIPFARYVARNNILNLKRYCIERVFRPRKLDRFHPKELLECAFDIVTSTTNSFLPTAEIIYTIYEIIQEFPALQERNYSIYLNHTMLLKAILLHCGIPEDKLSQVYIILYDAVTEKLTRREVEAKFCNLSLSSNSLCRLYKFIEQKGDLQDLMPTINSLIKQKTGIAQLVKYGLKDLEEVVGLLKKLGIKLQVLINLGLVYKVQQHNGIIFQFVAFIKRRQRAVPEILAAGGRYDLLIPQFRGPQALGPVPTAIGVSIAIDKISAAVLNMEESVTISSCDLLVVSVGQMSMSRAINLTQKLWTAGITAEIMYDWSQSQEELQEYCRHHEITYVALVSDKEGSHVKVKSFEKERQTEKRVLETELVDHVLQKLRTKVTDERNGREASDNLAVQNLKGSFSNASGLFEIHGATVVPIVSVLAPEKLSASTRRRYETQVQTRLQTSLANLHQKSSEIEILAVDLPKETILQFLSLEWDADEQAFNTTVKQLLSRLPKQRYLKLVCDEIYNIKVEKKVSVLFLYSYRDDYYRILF
UniProt Q9Y2J2, whole entry, looked up: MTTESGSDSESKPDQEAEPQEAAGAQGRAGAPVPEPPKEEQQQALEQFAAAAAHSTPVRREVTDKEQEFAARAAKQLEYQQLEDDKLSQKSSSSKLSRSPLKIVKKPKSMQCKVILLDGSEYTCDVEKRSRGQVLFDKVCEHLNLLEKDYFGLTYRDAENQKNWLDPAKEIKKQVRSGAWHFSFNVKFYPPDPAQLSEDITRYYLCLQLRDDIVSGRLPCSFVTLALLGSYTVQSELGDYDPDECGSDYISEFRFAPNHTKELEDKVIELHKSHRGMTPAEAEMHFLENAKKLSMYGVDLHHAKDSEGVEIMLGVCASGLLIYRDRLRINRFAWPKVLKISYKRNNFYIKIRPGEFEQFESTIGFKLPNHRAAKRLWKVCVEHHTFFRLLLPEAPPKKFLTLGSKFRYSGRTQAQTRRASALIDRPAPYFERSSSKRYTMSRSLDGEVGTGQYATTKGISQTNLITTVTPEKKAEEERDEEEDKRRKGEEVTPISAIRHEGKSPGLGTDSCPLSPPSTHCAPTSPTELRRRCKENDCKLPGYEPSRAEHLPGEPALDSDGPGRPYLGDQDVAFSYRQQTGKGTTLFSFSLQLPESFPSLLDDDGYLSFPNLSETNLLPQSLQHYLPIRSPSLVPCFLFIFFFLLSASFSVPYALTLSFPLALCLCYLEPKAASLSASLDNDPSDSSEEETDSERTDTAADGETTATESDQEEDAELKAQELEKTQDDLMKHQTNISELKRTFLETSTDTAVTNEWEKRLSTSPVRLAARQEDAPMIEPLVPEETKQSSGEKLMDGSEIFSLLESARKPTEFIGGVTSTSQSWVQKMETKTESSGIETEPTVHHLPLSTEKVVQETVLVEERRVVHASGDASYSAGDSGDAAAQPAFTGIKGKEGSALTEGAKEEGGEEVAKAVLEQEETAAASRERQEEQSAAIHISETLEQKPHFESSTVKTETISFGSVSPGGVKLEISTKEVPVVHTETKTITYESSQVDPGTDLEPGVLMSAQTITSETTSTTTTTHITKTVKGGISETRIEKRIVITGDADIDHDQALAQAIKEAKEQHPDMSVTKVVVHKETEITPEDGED
UniProt P06730, whole entry, looked up: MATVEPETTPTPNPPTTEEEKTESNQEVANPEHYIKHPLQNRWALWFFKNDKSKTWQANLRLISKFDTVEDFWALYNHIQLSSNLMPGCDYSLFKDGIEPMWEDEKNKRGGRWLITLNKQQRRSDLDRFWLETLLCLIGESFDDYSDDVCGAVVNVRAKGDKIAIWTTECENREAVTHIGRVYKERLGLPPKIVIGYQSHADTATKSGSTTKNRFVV

This is one part of the list.

Compound in one assay: CN1CC[C@H](c2c(O)cc(O)c3c(=O)cc(-c4ccccc4Cl)oc23)[C@H](O)C1 [alvocidib]
The experiment in a line: log2 fold change, soluble protein after heating vs DMSO (PISA); higher = thermal stabilisation; K562 lysate, 10 uM; active = over 0.2 and 3.5 SD of the protein, either way, in both replicates (recomputed). The essentials:
(§1)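 Log-two fold change in thermal stability relative to solvent controls is reported from duplicates. For each sample, crude K562 extract from dounce-homogenised pellets in PBS pH 7.4 with 1 mM MgCl2, at 1 mg/mL protein, was treated with 10 μM compound for 30 min. Aliquots heated for 3 min across 48°C-58°C were pooled, brought to 0.5% NP-40 at 4°C and cleared at 21,000xg for 90 min. The supernatant was quantified by TMTpro 16plex LC-MS/MS with channel sums equalised.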
For EPB41L1 (UniProt Q9H4G0), the log2 fold change is inactive: -0.025.
Consider ELAC2 (UniProt Q9BQ52), for which the log2 fold change is inactive: -0.032.
Regarding EIF4B (UniProt P23588), the log2 fold change is inactive: -0.024.
On to EIF3F (UniProt O00303), for which the log2 fold change is inactive: 0.01.
Consider EIF2D (UniProt P41214), for which the log2 fold change is inactive: 0.017.
On to EMC2 (UniProt Q15006), for which the log2 fold change is inactive: 0.093.
As to EP300 (UniProt Q09472), the log2 fold change is inactive: -0.098.
On to EIF5B (UniProt O60841), for which the log2 fold change was inactive: 0.003.
Same read-out and setting: the value for ERCC2 (UniProt P18074) was inactive: 0.048; that for EMC10 (UniProt Q5UCC4) was inactive: -0.096; that for EML2 isoform 3 (UniProt O95834) was inactive: 0.044.
For the target EMC8 (UniProt O43402), the log2 fold change is inactive: -0.015.
On the same count and under the same terms, the value for EIF3D (UniProt O15371) was inactive: 0.021; that for ENGASE (UniProt Q8NFI3) was inactive: -0.144; that for EPS15L1 isoform 2 (UniProt Q9UBC2) was inactive: 0.017.
Consider EP400P1 isoform 6 (UniProt Q6ZTU2), for which the log2 fold change was inactive: 0.079.
For the target ENTPD5 (UniProt O75356), the log2 fold change is inactive: -0.012.
With ELP6 (UniProt Q0PNE2), the log2 fold change was inactive: -0.073.
For EIF2B5 (UniProt Q13144), the log2 fold change is inactive: 0.03.
The same measure, in the same setting: the value for EIF3G (UniProt O75821) was inactive: 0.003; that for ELOC (UniProt Q15369) was inactive: 0.095; that for EML3 (UniProt Q32P44) was inactive: -0.038.
On to ELOA (UniProt Q14241), for which the log2 fold change was inactive: -0.041.
Same read-out and setting: the value for EIF2AK4 (UniProt Q9P2K8) was inactive: -0.046; that for EMC3 (UniProt Q9P0I2) was inactive: 0.03; that for EMP3 (UniProt P54852) was inactive: -0.227.
Same read-out and setting: the value for EMC4 (UniProt Q5J8M3) was inactive: 0.016.
For the target EPB41L3 (UniProt Q9Y2J2), the log2 fold change is inactive: -0.04.
In the case of EIF4EBP2 (UniProt Q13542), the log2 fold change is inactive: 0.081.
With ERCC6L (UniProt Q2NKX8), the log2 fold change was inactive: -0.01.
On to EIF4E isoform 2 (UniProt P06730), for which the log2 fold change was inactive: -0.02.
In the case of EMC6 (UniProt Q9BV81), the log2 fold change is inactive: 0.039.
Take EIF4A3 (UniProt P38919): the log2 fold change is inactive: -0.003.
Turning to EIF3E (UniProt P60228), the log2 fold change is inactive: 0.033.
As to EPHX2 (UniProt P34913), the log2 fold change was inactive: -0.018.

Compound in another assay: CN1CCc2c(c3ccccc3n2Cc2ccc(C(=O)NO)cc2)C1 [Tubastatin A]
The description is as above. The essentials:
as §1
For the target EPB41L1 (UniProt Q9H4G0), the log2 fold change was inactive: 0.021.
The same measure, in the same setting: the value for ELAC2 (UniProt Q9BQ52) was inactive: 0.028; that for EIF4B (UniProt P23588) was inactive: 0.053; that for EIF3F (UniProt O00303) was inactive: -0.031.
As for EIF2D (UniProt P41214), the log2 fold change is inactive: -0.083.
In the case of EMC2 (UniProt Q15006), the log2 fold change is inactive: 0.053.
For EP300 (UniProt Q09472), the log2 fold change is inactive: 0.035.
Turning to EIF5B (UniProt O60841), the log2 fold change was inactive: 0.007.
Regarding ERCC2 (UniProt P18074), the log2 fold change was inactive: -0.044.
Still for that read-out and setting: the value for EMC10 (UniProt Q5UCC4) was inactive: 0.113; that for EML2 isoform 3 (UniProt O95834) was inactive: -0.019; that for EMC8 (UniProt O43402) was inactive: 0.009.
As for EIF3D (UniProt O15371), the log2 fold change is inactive: -0.073.
In the case of ENGASE (UniProt Q8NFI3), the log2 fold change was inactive: -0.02.
Turning to EPS15L1 isoform 2 (UniProt Q9UBC2), the log2 fold change was inactive: 0.026.
Regarding EP400P1 isoform 6 (UniProt Q6ZTU2), the log2 fold change was inactive: 0.045.
For ENTPD5 (UniProt O75356), the log2 fold change was inactive: 0.035.
Consider ELP6 (UniProt Q0PNE2), for which the log2 fold change is inactive: 0.014.
In the case of EIF2B5 (UniProt Q13144), the log2 fold change is inactive: -0.06.
Regarding EIF3G (UniProt O75821), the log2 fold change is inactive: 0.023.
With ELOC (UniProt Q15369), the log2 fold change was inactive: -0.015.
Still for that read-out and setting: the value for EML3 (UniProt Q32P44) was inactive: -0.002.
On to ELOA (UniProt Q14241), for which the log2 fold change was inactive: -0.032.
EIF2AK4 (UniProt Q9P2K8): the log2 fold change is inactive: -0.022.
For the target EMC3 (UniProt Q9P0I2), the log2 fold change is inactive: 0.097.
As to EMP3 (UniProt P54852), the log2 fold change is inactive: -0.021.
On to EMC4 (UniProt Q5J8M3), for which the log2 fold change was inactive: 0.036.
Turning to EPB41L3 (UniProt Q9Y2J2), the log2 fold change was inactive: -0.094.
Take EIF4EBP2 (UniProt Q13542): the log2 fold change was inactive: 0.179.
On to ERCC6L (UniProt Q2NKX8), for which the log2 fold change was inactive: -0.08.
On to EIF4E isoform 2 (UniProt P06730), for which the log2 fold change was inactive: -0.051.
On the same count and under the same terms, the value for EMC6 (UniProt Q9BV81) was inactive: 0.225; that for EIF4A3 (UniProt P38919) was inactive: 0.002; that for EIF3E (UniProt P60228) was inactive: -0.075.
With EPHX2 (UniProt P34913), the log2 fold change was inactive: 0.183.
